Among the data in US6452005B1, “JAK-3 inhibitors for treating allergic disorders” (Parker Hughes Institute, priority 1999, dated 2002) are IC50 values, retold here.

Test [1] has as its target T1, human JAK3 (Homo sapiens, UniProt P52333).
T1 construct: KL-2 EBV-transformed human lymphoblastoid B cells (native JAK3 kinase assays); endogenous in cells; host or cells: KL-2 EBV-transformed human lymphoblastoid B cell line
T1 sequence (P52333 1-1124): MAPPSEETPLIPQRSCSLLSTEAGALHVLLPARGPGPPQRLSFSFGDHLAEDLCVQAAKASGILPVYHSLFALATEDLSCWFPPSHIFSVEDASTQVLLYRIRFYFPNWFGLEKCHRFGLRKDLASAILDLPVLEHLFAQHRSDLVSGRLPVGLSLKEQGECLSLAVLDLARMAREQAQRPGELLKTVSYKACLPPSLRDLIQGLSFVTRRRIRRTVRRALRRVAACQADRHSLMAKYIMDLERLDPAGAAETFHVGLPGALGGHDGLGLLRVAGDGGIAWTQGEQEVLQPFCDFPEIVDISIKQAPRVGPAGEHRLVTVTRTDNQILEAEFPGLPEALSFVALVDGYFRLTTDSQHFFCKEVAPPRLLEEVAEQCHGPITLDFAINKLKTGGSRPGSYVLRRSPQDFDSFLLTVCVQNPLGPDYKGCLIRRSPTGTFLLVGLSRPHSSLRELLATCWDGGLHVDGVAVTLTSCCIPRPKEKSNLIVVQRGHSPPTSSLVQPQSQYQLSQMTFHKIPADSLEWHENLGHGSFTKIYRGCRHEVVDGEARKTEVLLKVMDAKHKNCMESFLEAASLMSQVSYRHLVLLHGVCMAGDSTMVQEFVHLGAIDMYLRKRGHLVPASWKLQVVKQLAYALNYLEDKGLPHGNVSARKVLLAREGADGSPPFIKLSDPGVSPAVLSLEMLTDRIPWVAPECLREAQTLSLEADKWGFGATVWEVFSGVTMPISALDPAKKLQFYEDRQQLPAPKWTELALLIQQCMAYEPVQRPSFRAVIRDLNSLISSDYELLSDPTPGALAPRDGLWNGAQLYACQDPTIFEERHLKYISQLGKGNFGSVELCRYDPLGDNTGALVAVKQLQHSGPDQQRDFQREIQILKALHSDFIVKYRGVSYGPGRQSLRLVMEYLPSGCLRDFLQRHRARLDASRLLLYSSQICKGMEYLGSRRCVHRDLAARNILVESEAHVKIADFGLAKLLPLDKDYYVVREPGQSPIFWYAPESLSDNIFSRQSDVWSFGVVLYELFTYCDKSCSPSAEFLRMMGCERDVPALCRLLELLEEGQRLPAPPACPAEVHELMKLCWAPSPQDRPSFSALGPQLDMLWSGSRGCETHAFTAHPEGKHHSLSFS
In words: JAK3 kinase inhibition (Table 1 IC50, immune complex kinase assay). The class given is biochemical. Particulars: measured inhibition values for JAK3 kinase. Here is the method:
Immune Complex Kinase Assays.
(§1) KL-2 EBV-transformed human lymphoblastoid B cells (native JAK3 kinase assays) or insect ovary cells (recombinant JAK3 kinase assays) were lysed with NP-40 lysis buffer (50 mM Tris, pH 8, 150 mM NaCl, 5 mM EDTA, 1% NP-40, 100 μM sodium orthovanadate, 100 μM sodium molybdate, 8 μg/ml aprotinin, 5 μg/ml leupeptin, and 500 μM PMSF) and centrifuged 10 minutes at 13000×g to remove insoluble material. Samples were immunoprecipitated with antisera prepared against JAK3. The antisera were diluted and immune complexes collected by incubation with 15 μl protein A Sepharose. After 4 washes with NP-40 lysis buffer, the protein A Sepharose beads were washed once in kinase buffer (20 mM MOPS, pH 7.0, 10 mM MgCl2) and resuspended in the same buffer. Reactions were initiated by the addition of 25 μCi γ[^32P] ATP (5000 Ci/mMole) and unlabeled ATP to a final concentration of 5 μM. Reactions were terminated by boiling for 4 min in SDS sample buffer. Samples were run on 9.5% SDS polyacrylamide gels and labeled proteins will be detected by autoradiography. […] For each drug concentration, a kinase activity index (KA) was determined by comparing the kinase activity in phosphorimager units (PIU) to that of the baseline sample. […]

The target in test [2] is T1, human JAK3. Briefly: Immune complex kinase assay, JAK3 immunoprecipitated from KL2 EBV-transformed lymphoblastoid B cell line. The test is classed as biochemical. Particulars: JAK3 immunoprecipitated from KL2 cells. Here is the method:
as §1

The term IC50 denotes the concentration needed to halve the response being measured. As to `COc1cc2ncnc(Nc3ccc(O)c(Br)c3)c2cc1OC` [WHI-P154, 4-(3′-Bromo-4′-hydroxylphenyl)-amino-6,7-dimethoxyquinazoline], the IC50 was 128 µM against human JAK3 [1] and 27.9 µM against human JAK3 [2].
